Measured values reported in patent US20240424055A1 (published 2024).

Amino acid sequences for entries named in this document (tags omitted). Residues count along the entry.
UniProt P01031, 19-1676 limits assumed: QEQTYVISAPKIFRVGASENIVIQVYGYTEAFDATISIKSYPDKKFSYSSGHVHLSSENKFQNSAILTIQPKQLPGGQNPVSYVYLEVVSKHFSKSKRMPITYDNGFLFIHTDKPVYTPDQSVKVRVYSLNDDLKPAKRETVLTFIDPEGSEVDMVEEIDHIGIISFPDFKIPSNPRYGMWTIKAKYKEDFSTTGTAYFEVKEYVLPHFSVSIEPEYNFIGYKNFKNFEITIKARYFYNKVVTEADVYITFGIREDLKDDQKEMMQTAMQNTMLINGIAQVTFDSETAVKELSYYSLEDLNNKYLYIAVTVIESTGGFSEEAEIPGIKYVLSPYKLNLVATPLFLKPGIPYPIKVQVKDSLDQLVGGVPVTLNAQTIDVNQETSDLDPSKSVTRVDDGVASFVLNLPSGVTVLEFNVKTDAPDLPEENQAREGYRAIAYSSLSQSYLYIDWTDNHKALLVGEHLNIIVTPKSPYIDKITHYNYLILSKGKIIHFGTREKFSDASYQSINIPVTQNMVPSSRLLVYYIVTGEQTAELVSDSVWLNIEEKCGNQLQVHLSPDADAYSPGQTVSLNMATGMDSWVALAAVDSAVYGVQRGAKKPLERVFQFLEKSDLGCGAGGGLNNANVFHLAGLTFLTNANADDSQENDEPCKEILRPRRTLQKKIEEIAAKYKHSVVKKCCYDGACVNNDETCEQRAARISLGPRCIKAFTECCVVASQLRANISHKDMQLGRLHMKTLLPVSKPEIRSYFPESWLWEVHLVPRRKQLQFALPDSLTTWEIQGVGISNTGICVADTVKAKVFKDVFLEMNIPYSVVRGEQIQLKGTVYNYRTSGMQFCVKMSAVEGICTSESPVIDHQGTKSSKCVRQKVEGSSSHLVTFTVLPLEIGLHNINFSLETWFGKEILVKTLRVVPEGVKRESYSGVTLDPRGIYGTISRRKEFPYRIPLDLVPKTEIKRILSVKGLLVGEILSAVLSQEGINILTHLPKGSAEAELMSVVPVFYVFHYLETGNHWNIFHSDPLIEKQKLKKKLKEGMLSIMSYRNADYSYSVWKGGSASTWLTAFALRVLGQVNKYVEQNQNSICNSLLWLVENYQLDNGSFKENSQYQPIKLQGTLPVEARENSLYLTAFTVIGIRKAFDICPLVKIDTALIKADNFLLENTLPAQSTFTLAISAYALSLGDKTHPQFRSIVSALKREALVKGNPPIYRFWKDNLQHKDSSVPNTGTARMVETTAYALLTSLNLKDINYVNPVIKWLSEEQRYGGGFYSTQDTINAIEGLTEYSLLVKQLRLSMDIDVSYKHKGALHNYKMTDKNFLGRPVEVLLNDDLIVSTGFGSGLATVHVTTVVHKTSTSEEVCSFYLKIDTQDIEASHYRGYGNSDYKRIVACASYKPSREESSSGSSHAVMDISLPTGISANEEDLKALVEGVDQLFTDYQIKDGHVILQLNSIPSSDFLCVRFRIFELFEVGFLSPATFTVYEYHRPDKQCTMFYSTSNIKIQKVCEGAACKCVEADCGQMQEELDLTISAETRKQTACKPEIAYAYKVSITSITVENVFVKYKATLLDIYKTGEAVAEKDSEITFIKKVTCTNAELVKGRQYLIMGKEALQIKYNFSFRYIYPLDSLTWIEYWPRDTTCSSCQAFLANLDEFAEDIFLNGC

Experiments:
[1] = biological target: T1, human complement protein C5 (human, UniProt P01031 19-1676); experiment: surface plasmon resonance, kinetics
T1 construct: The mature natural protein is a two-chain (alpha/beta) product of one precursor; In the hemolysis assay and the clinical samples it is the endogenous C5 of human serum; also called human C5; complement C5
Protocol: (§1) The specificity and affinity of binding of the C5-binding protein (73.46 mg/mL in PBS) to human C5 in vitro was determined by measuring the kinetics of its binding to human C5 as compared to its binding to human C3, C4, and human IgG using surface plasmon resonance methods. C3 and C4 are the 2 proteins most closely related to C5, sharing approximately 30% overall protein sequence identity to human C5 (Wetsel et al, 1988, “Molecular Analysis of Human Complement Component C5: Localization of the Structural Gene to Chromosome 9:” Biochemistry; Vol. 27(5): pp. 1474-1482), and IgG is the original ligand of the affibody scaffold from which the affibody portion of the C5-binding protein was engineered.

human IgG = biological target: T2, human IgG (human); experiment: surface plasmon resonance; reference is binding to human C5
T2 construct: Specificity control in SPR, described as the original ligand of the affibody scaffold
Protocol: as §1

human C4 = biological target: T3, human C4 (human); experiment: as above
T3 construct: Specificity control in SPR
Protocol: as §1

B1: C5-binding protein (designed binder)
chain: AEAKYAKEVLEAWDEIDRLPNLTIEQWLAFINKLDDDPSQSSELLSEAKKLSESQAPKVEGSLAEAKEAANAELDSYGVSDFYKRLIDKAKTVEGVEALKDAILAALP
notes: 1; also called the active agent; the study drug
Kd [1]: ~380 pM
selectivity for human C5 over IgG (fold) (human IgG): ≥ 4000 fold
selectivity for human C5 over C4 (fold) (human C4): ≥ 4000 fold
